Assay results: US20190002560A1 (Alector, published 2019)
These are yes or no findings as the source states them, for the method shown. Some binding calls cover weakened binding; strength is not graded here.

By UniProt entry, the sequences of proteins in these tests, tags left out. Where a name states a change or a piece, a line headed by the entry shows the natural chain unless it says otherwise.
UniProt P20138: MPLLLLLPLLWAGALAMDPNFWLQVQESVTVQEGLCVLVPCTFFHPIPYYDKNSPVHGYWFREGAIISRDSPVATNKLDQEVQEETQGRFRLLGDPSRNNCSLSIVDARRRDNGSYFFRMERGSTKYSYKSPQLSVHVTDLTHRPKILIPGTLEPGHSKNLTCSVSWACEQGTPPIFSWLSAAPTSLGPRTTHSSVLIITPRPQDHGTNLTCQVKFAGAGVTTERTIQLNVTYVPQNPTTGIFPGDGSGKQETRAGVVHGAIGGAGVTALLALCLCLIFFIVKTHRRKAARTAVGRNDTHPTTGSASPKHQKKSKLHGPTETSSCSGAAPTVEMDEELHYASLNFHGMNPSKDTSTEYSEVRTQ

Columns and labels:
human CD33 [1] = target: T1, human CD33 (human, UniProt P20138 18-364); test: flow cytometry, human primary monocytes, 1, 0.1 or 0.01 ug/ml antibody
human CD33 [2] = target: T1, human CD33; test: flow cytometry on human primary dendritic cells, antibody titration
human CD33 [3] = target: T1, human CD33; test: flow cytometry on human primary monocytes, 1 h on ice, PE-conjugated secondary antibody, MFI

binding (human CD33 [1]): binds
binding (human CD33 [2]): binds
binding (human CD33 [3]): binds
B1: anti-CD33 antibody gemtuzumab (antibody, V domains shown)
VH: EVQLVQSGAEVKKPGSSVKVSCKASGYTITDSNIHWVRQAPGQSLEWIGYIYPYNGGTDYNQKFKNRATLTVDNPTNTAYMELSSLRSEDTAFYYCVNGNPWLAYWGQGTLVTVSS
VL: DIQLTQSPSTLSASVGDRVTITCRASESLDNYGIRFLTWFQQKPGKAPKLLMYAASNQGSGVPSRFSGSGSGTEFTLTISSLQPDDFATYYCQQTKEVPWSFGQGTKVEVKR
notes: Commercially available antibody
